Our source for the z-score values is PubChem BioAssay AID1508600 (Functional Genomics Laboratory (NCATS/FGL), 2020).

Among all 53,000 sequences or so, about 3,700 (7%) were called active.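 How the source made its calls: active means gene knockdowns whose robust z-score for IL-1 alpha signal is at least 2 or at most -2, so actives lie on both sides; inactive means the rest.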 Some of the results follow.

The experiment can be described thus: Components of the Cytosolic LPS Sensing Pathway: Gene Identification via Genome-wide siRNA Screen.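 Further: robust z of the log signal after scaling to non-targeting control siRNA wells of the plate.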 Conditions: RAW264.7 macrophages, IL-1a HTRF, actives lie on both sides, screened at 100 nM (by protocol), cells primed 5 h with Pam3CSK4 first. The gist of the method: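 RAW264.7 mouse macrophages reverse-transfected with single siRNAs (100 nM final) for 48h, primed with Pam3CSK4 for 5 hours, then transfected with LipidA for 24 hour. Supernatant IL-1a read by HTRF; values normalized to negative-control median, log-transformed robust z-scores.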
On to GGAUGUGUUAUCGGUGCUCTT against Mup21, for which the z-score is inactive: -0.303.

For CCAAGUUUGUUUCAGACGGTT against Btbd6, the z-score was inactive: -0.366.

Turning to GCAAGUCGUGAAACUAUAATT against Yeats4, the z-score is inactive: 0.278.

For GGCCUUUCAAGAAGCCAAATT against Tprn, the z-score was inactive: -0.0144.

Take GGCUCUAGGUACUUGUGGUTT against Olfr617: the z-score was inactive: -0.626.

Take GCUGCCCUUCGAUUUCUGUTT against Olfr550: the z-score was inactive: 0.123.

In the case of GGCCGAUCCUCUUUUAAAUTT against Tafa4, the z-score was inactive: -1.61.

Turning to GGAGAUACCCAAUCUCAGATT against Tcaf3, the z-score is inactive: -0.438.

CAAAUUAUGAGUGAGAACCTT against Olfr340: the z-score is inactive: -0.974.

For CGUGCUCAUUUAGGUUAUATT against Zfp57, the z-score is inactive: 1.15.

Take GGUCAUCCUUUUUCAGUACTT against Lhx6: the z-score was active: 2.28.

For the sequence GGCUGUUUUGUGAACCUAATT against Olfr481, the z-score is inactive: -0.353.

For GGAUGUGCAAGAGAAAUUCTT against Tmem175, the z-score was inactive: 0.334.

GGUACUUGAGUUGGCAGGATT against H2az1: the z-score is inactive: -1.16.

With GGCUUUACCGGAUCUUUUGTT against Krtap15, the z-score was inactive: -1.06.

As for GGACUUGGAGAGCAAAAGCTT against Ano2, the z-score was active: -2.14.

As for GCAGAUUCCUAUUAAAUGGTT against Fer, the z-score is inactive: -0.587.

In the case of GGAUGAAGCGAAUCACAACTT against Atp1b4, the z-score is inactive: -1.46.

GGAGGAAACACGUCUGAAUTT against Slc4a9: the z-score was inactive: -0.425.

For the sequence GGCAGCUAGAGAGAAUCCUTT against Akr1c12, the z-score is active: -2.45.

Turning to GGAGACAUCCAUUGAGCUUTT against Kirrel, the z-score was inactive: 0.374.

On to CCAUGACAAUGAAUAUCCUTT against Ms4a19, for which the z-score is inactive: -1.24.

As for GGGAACACUGUUGUUCUUGTT against Sprr3, the z-score is inactive: 0.54.

For GGGCUUAACACUUUAAAUCTT against Reep3, the z-score is inactive: 0.454.

Take GGUUAACCUGAGAAAAAUGTT against Mkrn1: the z-score was inactive: 0.734.

Consider GGAAGAAAUGUCAUCACAATT against Heph, for which the z-score was inactive: 0.193.

On to GGUCUAGCUCUGAAACAUCTT against Pms2, for which the z-score was active: 2.27.

As to GUGAUUGAUAUUGUUCGAGTT against Pip, the z-score was inactive: 0.00578.

As to GGACACUAUAAGAAAGGAATT against Fnta, the z-score was inactive: 0.708.

In the case of GGUAUUUGAUGCUCGGGACTT against Nos3, the z-score was inactive: -0.979.

In the case of CCAUUUUCGGCAAUGCGCUTT against Adra2b, the z-score is inactive: -1.13.

In the case of GGCUUUUCGUUCUCUGUCATT against Zfp729a, the z-score was inactive: -1.78.

For GUUGCUGUAAACCCUGCUGTT against Krtap5-4, the z-score is inactive: -0.525.

On to GGACAUCUUGUGUCUGUGCTT against Reg3g, for which the z-score is inactive: 0.111.

GGAUGUACAGUGCAUUUUGTT against Ankrd24: the z-score was inactive: -0.344.

On to GGUCGUGAUAAACAUAUCATT against Cep85, for which the z-score was inactive: -1.1.

GGAAUCCUAGGUUGCAUUATT against Mycbpap: the z-score was inactive: -0.379.

For GAUGGUAGAGUCUACAUCATT against Hcst, the z-score is inactive: -0.836.

Take GGAUGCAUGGCCCAACUUUTT against Olfr915: the z-score was inactive: 1.64.

Consider GCAACAUGAGGUAUAUUGGTT against Sema4d, for which the z-score was inactive: -0.688.

As for GCCUCAUGGCUUAACUUUGTT against Acads, the z-score was inactive: -0.743.

For the sequence GGUGCUUGUGGGUAACAAGTT against Rab33a, the z-score was inactive: 1.94.

As to GGUUUUCACUAUUUCAACUTT against Olfr187, the z-score was inactive: -1.06.

CGUUUGCUCUAAAGCCAGGTT against Smagp: the z-score was inactive: 0.886.

Take GCCAAACUUAGCGUGCUCATT against Dgkk: the z-score was inactive: 0.607.

Consider CGAUCAUCAUUGGUUGCGGTT against Fam24b, for which the z-score is inactive: 0.176.

Take GCCUUUUAUAUAGAAGACCTT against Pheta2: the z-score is inactive: 0.679.

With GGAGAUAAAUCCUUUGCAUTT against Zfp119a, the z-score was inactive: 1.74.

As to GCCUUUGGAAGUUCAGAACTT against Rnf216, the z-score was inactive: -1.07.

As to GGAGCCUGACAUCAUUAUCTT against Mmp25, the z-score was inactive: -0.546.

As to GGGCAAUGAUAUUGUUGUGTT against Ilk, the z-score was inactive: -0.787.

With AGAGUGGUAAAACUGAUUATT against Tas2r129, the z-score is inactive: 0.513.

Consider GGCCUUUUGGCUUUGAUCUTT against Hoxb1, for which the z-score was inactive: -1.86.

On to CGGGCAUUAAGGUAUGGAATT against Lrrc29, for which the z-score was inactive: 1.31.

With GGAUCUAGAGAUUGAAAAUTT against Uaca, the z-score is inactive: 0.182.

Turning to CCCACUACCGUCUUUCCUATT against Thoc6, the z-score was inactive: -1.73.

On to GGAUGAUGUUCCCAUGCAATT against Cdca7l, for which the z-score was inactive: -0.45.

On to GGCAUGUCAGUGAAAUUUUTT against Vmn1r174, for which the z-score is inactive: -0.305.

For GGCAACUUGGAUGUUUUGATT against Pramel39, the z-score was inactive: 0.0425.

Take GGUCCAGUCAGGAAACACATT against Flacc1: the z-score is inactive: -0.931.

On to CCGAAGUUCACCCUAAAGGTT against Lmna, for which the z-score is inactive: -0.485.

For GGUGUGUGAUAAAUCUUUUTT against Zfp53, the z-score was inactive: 1.52.

For GGCUGCCAAGAAAAUCUAUTT against Rab14, the z-score is inactive: 0.363.

For the sequence CCAUUCUACGAGAAUUGUATT against Dync1i2, the z-score is inactive: -0.326.

For GGGACUAAGAUGAAGCUGATT against Fam43a, the z-score was active: -2.18.

Regarding GGCUGCUUAGCUUUAAUGGTT against Ccdc177, the z-score is inactive: -0.674.

As to GCUUUUUAGAAUCUCCGAATT against Sel1l, the z-score is inactive: 0.584.

In the case of “GCCUUGUAGACCAGUUCUATT against 9530085L02Rik”, the z-score was active: 2.15.

In the case of GUUUCAUGAGUGCCUCCAUTT against Olfr1446, the z-score was inactive: 1.51.

As for GGAGGAAGAAACAAAAAAATT against Nolc1, the z-score is inactive: 0.583.

Turning to GGACAGUAUAAAACUCCAATT against Atg3, the z-score is inactive: 0.104.

Turning to CGACCUGCUCUCAUAGCUUTT against Sycn, the z-score is inactive: -0.702.

GCAAUGUGCACGAUGAUGATT against Pik3cg: the z-score was inactive: -0.79.

With GCUUCCACAUAUUUUUUGCTT against Olfr1467, the z-score was inactive: -0.994.

Consider CAAGAAAAUGCUCUCUGUUTT against Gm1553, for which the z-score is inactive: -1.51.

As for GCACCUACGUUUGUUGGAUTT against Clasp2, the z-score is inactive: 1.4.

As for GCUCCACAAGAUGUAAAGGTT against Il21, the z-score is inactive: 0.11.

GCGCAGGUUGGAUGAAUGUTT against Psme3: the z-score was inactive: -0.433.

Take GCAUUCAGUUGGGACAGUATT against Hsh2d: the z-score was inactive: 0.443.

For GGGAUAUCCUACCAGGUCATT against Ppard, the z-score was inactive: -1.24.

On to GGAAAUGCCACCAUUGUUATT against Olfr514, for which the z-score was inactive: 0.33.

On to CCCUAACAUUGAGAUGAUUTT against Peg10, for which the z-score was inactive: -0.369.

For “GGCAAAACAAAAACUCUACTT against 1700028P14Rik”, the z-score was inactive: -0.834.

Regarding GGCUUCAUGCCUUAUCCACTT against Fam166a, the z-score is inactive: -0.314.

Turning to GGCAACUGUUACUUUUAAUTT against Proser1, the z-score is inactive: -0.476.

As for GGCAGCUAAACUGUGUUAUTT against Tex11, the z-score was inactive: -1.36.

Regarding CCCUGGUAUCUUACAUCGATT against Zdhhc19, the z-score is inactive: -0.553.

Consider GGAGAGUGUAUCCUAUCUGTT against Snapc3, for which the z-score is inactive: -1.21.

In the case of GGUGUACCAAGUGUUGAAGTT against Pold4, the z-score is inactive: 1.56.

For the sequence CCGUAGUCCUGAAGAUUCCTT against Olfr427, the z-score was inactive: -0.479.

As to GGGCAUAUGGAGAACACAUTT against Dmrt1, the z-score is inactive: 0.565.

As for GGAUGUACUUUGUUAAGGCTT against Tert, the z-score was active: 2.78.

As for GGGAAAGACUGGAAAUCUUTT against Tmod3, the z-score was inactive: 0.515.

Consider GCUGAAAUGGAGUAUUUGATT against Nf2, for which the z-score is inactive: 0.283.

For GGAGCUGCUCCAGUUGAUATT against Col11a1, the z-score is inactive: 0.443.

As to GGAGAAGUUUGGGAAGAAATT against Gys2, the z-score is inactive: 0.0239.

Take CCUAGGGCUUUAGCUCUGATT against Msc: the z-score was inactive: -0.75.

For GCAUAAUGCUGUCACCCUCTT against Aimp2, the z-score was inactive: 0.984.

Turning to GGCUUUGUCGUUAAUUUUUTT against Auh, the z-score was inactive: 0.322.

As to GGAGUUUCGCAUGAGCCUGTT against Shroom1, the z-score is inactive: -0.0803.

As for CCCUAAAACUUCUAUCGAGTT against Eif6, the z-score is inactive: -1.05.

With GGAGUCGUCACAGCAGAGATT against Stag2, the z-score is inactive: -1.1.

For GGCUUUGCUACUUGGGAUATT against Wdr86, the z-score is active: 3.16.

For GGAGGUGUUCAUUGAAGUCTT against Nudcd2, the z-score is inactive: -0.356.

For GGGCAAUGCUCAUGAGUUATT against Vegfd, the z-score is inactive: 0.729.

As for GCAGUCGAGCAUGAAACAATT against Atp5pb, the z-score is inactive: -1.23.

Regarding GGGACUUGCCAGAAGAUGCTT against Nkapl, the z-score was inactive: -0.111.
